Assay results: PMC9964033

Chains of the proteins cited; added tags and fusions are not shown.
UniProt P63073: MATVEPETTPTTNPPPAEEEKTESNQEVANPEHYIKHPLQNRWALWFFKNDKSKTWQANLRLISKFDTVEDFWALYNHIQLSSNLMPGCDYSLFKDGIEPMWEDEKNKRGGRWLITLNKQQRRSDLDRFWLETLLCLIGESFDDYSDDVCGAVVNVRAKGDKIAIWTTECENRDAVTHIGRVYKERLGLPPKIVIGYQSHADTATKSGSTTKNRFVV
UniProt P06730: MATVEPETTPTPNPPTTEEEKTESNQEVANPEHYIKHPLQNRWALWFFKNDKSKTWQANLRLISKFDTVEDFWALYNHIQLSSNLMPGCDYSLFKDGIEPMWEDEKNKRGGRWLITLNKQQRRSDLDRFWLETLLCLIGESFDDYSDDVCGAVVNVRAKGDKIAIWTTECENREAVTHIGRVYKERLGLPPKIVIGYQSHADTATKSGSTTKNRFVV
UniProt P38919: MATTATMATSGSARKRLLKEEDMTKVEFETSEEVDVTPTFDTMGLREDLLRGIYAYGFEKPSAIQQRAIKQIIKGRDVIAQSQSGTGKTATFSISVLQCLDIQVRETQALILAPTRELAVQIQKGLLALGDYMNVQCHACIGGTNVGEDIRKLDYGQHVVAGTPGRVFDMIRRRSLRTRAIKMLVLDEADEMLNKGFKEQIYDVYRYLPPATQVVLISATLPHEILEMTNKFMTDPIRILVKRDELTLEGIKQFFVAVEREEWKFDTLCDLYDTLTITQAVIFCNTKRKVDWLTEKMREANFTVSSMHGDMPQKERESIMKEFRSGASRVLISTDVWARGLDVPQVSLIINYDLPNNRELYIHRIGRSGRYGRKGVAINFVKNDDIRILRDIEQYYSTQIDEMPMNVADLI
UniProt Q7TMB8: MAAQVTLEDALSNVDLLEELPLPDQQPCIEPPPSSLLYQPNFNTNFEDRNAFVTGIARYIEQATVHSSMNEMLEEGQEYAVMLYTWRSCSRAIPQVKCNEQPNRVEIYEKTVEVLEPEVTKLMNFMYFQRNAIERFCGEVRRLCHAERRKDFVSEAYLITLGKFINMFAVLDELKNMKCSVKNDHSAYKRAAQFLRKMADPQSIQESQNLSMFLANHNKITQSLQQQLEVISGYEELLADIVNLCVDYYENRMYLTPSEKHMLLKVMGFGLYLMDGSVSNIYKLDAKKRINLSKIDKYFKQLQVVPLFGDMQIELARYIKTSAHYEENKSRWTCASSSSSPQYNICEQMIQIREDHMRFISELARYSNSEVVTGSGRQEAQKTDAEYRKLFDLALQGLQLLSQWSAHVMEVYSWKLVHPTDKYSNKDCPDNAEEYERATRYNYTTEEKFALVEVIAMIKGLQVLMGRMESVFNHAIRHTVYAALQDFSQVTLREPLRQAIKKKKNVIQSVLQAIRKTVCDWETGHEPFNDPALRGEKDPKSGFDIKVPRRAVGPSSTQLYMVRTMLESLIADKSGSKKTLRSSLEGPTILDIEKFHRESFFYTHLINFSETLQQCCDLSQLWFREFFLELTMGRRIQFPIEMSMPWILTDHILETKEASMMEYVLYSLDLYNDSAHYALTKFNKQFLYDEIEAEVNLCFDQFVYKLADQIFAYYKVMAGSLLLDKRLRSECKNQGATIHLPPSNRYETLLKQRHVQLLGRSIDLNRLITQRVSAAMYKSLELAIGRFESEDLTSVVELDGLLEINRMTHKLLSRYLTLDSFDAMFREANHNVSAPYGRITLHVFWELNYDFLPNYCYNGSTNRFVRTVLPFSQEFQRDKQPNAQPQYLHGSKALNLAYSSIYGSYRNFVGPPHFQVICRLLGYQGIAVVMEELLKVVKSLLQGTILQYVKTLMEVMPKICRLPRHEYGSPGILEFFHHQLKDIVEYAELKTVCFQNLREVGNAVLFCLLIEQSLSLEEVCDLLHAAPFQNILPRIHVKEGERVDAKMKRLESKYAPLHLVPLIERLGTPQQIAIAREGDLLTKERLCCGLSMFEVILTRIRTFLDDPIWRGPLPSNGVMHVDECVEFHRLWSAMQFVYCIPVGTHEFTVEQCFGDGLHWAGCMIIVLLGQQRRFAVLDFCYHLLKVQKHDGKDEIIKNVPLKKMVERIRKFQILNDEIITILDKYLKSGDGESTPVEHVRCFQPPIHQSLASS
UniProt Q91VC3: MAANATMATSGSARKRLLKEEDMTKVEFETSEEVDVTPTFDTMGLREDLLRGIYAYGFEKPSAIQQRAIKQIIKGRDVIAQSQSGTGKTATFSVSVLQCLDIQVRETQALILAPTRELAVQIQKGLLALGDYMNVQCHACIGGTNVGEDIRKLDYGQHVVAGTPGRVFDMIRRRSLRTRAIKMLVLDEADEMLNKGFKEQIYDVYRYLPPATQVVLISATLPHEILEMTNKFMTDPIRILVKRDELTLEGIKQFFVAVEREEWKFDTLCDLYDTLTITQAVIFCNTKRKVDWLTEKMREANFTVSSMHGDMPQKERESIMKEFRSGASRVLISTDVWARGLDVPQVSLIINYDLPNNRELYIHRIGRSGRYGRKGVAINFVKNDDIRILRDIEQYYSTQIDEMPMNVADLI
UniProt Q7L576: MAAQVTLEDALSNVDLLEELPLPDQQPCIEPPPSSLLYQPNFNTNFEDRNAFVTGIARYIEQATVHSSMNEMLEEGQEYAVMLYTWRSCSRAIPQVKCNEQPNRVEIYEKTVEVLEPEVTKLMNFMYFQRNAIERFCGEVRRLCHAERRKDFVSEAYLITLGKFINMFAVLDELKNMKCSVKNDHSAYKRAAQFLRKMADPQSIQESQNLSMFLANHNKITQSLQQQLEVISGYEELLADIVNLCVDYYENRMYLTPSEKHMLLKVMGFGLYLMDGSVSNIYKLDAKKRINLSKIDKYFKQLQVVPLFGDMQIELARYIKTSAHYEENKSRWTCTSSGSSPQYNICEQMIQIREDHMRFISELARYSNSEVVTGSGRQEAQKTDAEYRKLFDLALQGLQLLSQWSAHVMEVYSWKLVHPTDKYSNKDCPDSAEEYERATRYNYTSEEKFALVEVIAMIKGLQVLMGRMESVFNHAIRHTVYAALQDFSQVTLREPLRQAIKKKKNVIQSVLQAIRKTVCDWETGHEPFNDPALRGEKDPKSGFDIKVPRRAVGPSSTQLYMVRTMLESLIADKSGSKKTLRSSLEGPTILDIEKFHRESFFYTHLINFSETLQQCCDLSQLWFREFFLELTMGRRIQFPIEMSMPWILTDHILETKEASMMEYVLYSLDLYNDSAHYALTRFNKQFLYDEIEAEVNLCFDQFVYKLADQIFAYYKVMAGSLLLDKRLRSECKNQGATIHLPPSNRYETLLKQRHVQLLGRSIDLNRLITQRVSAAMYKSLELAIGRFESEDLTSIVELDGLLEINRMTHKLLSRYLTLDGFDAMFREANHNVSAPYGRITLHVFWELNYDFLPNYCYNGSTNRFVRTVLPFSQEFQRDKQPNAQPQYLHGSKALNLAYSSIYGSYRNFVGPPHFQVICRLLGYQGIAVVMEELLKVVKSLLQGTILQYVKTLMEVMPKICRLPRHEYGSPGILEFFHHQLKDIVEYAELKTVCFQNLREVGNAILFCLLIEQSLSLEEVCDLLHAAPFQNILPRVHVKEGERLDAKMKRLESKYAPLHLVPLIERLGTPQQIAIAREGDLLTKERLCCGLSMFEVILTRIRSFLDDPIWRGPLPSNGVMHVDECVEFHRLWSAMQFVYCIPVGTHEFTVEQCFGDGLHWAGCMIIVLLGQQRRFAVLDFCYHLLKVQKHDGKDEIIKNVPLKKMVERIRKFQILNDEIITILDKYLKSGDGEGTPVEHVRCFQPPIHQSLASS

How the values were obtained:
[1] = target: T1, CPEB3-HA expressed in mouse primary cortical neurons under a human synapsin promoter (mouse) (UniProt Q7TN99); assay: affinity purification with mass spectrometry; CPEB3-HA expressed in mouse primary cortical neurons under a human synapsin promoter, immunoprecipitated via the HA tag, on-bead trypsin digestion, LC-MS/MS; three samples
T1 sequence: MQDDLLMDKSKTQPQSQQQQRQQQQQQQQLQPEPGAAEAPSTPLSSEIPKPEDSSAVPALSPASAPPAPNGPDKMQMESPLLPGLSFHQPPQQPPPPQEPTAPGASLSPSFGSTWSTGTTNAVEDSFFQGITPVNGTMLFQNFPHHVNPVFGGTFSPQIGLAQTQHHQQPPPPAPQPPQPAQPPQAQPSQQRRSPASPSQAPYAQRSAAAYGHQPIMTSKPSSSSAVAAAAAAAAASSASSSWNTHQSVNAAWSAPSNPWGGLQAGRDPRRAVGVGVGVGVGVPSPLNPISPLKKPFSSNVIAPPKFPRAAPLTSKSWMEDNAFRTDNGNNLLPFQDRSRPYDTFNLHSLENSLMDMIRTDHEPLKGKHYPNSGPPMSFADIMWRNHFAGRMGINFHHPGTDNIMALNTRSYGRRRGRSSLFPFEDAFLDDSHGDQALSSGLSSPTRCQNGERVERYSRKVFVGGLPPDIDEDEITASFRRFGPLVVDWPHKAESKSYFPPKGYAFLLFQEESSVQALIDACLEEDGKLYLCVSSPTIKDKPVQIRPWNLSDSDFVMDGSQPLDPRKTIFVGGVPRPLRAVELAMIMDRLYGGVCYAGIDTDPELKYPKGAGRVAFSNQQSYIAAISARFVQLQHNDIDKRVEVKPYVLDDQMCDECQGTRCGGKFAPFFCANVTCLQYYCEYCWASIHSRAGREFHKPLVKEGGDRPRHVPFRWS

[2] = target: T2, CPEB3-GFP (cytoplasmic polyadenylation element binding protein 3, GFP-tagged), expressed in HEK293T (mouse) (UniProt Q7TN99); assay: affinity purification with mass spectrometry; CPEB3-HA or CPEB3-GFP expressed in HEK293T under a CMV promoter, immunoprecipitated via the respective tag (HA-linked magnetic beads or GFP-Trap; RIPA + NEM lysate, overnight at 4 °C), on-bead trypsin digestion, LC-MS/MS; n = 5
T2 sequence: T1 sequence

[3] = target: T3, CPEB3-HA (cytoplasmic polyadenylation element binding protein 3, HA-tagged), expressed in HEK293T (mouse) (UniProt Q7TN99); assay: as above
T3 sequence: T1 sequence

[4] = target: T4, CPEB3 (full-length), expressed in mouse neuroblastoma N2A cells (mouse) (UniProt Q7TN99); assay: affinity purification with mass spectrometry; interactomes of N2A-expressed CPEB3 and S240-242A compared (Fischer's test); immunoprecipitation from RIPA + NEM lysate, LC-MS/MS
T4 sequence: T1 sequence

Molecule: eIF4e (mouse neurons) (from UniProt P63073 1-217)
binding [1]: binds

Molecule: eIF4e (HEK293T) (from UniProt P06730 1-217)
binding [2]: binds | binding [3]: binds

Molecule: Eukaryotic Translation Initiation Factor 4A3 (HEK293T) (from UniProt P38919 1-411)
binding [2]: binds | binding [3]: binds

Molecule: Mago Nashi (mouse neurons)
binding [1]: binds

Molecule: CYFIP1 (mouse neurons) (from UniProt Q7TMB8 1-1253)
binding [1]: binds

B1: Vapa (protein, UniProt Q9WV55 1-249)
chain: MASASGAMAKHEQILVLDPPSDLKFKGPFTDVVTTNLKLQNPSDRKVCFKVKTTAPRRYCVRPNSGIIDPGSIVTVSVMLQPFDYDPNEKSKHKFMVQTIFAPPNISDMEAVWKEAKPDELMDSKLRCVFEMPNENDKLNDMEPSKAVPLNASKQDGPLPKPHSVSLNDTETRKLMEECKRLQGEMMKLSEENRHLRDEGLRLRKVAHSDKPGSTSAVSFRDNVTSPLPSLLVVIAAIFIGFFLGKFIL
binding [4]: binds

B2: Sept6 (protein, UniProt Q9R1T4 1-434)
chain: MAAADIARQVGEDCRTVPLAGHVGFDSLPDQLVNKSVSQGFCFNILCVGETGLGKSTLMDTLFNTKFEGEPATHTQPGVQLQSNTYDLQESNVGLKLTIVSTVGFGDQINKEDSYKPIVEFIDAQFEAYLQEELKIRRVLHSYHDSRIHVCLYFIAPTGHSLKSLDLVTMKKLDSKVNIIPVIAKSDAISKSELAKFKIKITSELVSNGVQIYQFPTDDESVSEINGTMNAHLPFAVVGSTEEVKIGNKMMRARQYPWGTVQVENEAHCDFVKLREMLIRVNMEDLREQTHARHYELYRRCKLEEMGFKDTDPDSKPFSLQETYEAKRNEFLGELQKKEEEMRQMFVQRVKEKEAELKEAEKELHEKFDRLKKLHQEEKKKLEDKKKCLDEEMNAFKQRKAAAELLQSQGSQAGGSQTLKRDKEKKNNPWLCIE
binding [4]: binds

B3: Utp23 (protein, UniProt Q9CX11 1-249)
chain: MKITRQKHAKKHLGFFRNNFGVREPYQILLDGTFCQAALRGRIQLRDQLPRYLMGETQLCTTRCVLKELETLGKELYGAKLIAQKCQVRNCPHFKSPVSGSECLLSMVDEGNPHHYFVATQDQNLSVKVKRTPGIPLMFIIQNTIVLDKPSPRTVAFVKAVEAGQLVSVHEKQSIKQLKEEQGLVRNPDLRRRRRKKKKVGGPNPLSCLKKKKKAQDTKSPASEKKRKRKRIRNRSTLKVSSEQQGAEG
binding [4]: binds

B5: Srp14 (protein, UniProt P16254 1-110)
chain: MVLLESEQFLTELTRLFQKCRSSGSVFITLKKYDGRTKPIPRKSSVEGLEPAENKCLLRATDGKRKISTVVSSKEVNKFQMAYSNLLRANMDGLKKRDKKNKSKKSKPAQ
binding [4]: binds

Second part, the molecule after the results:

binding [1]: binds
Molecule: Eukaryotic Translation Initiation Factor 4A3 (mouse neurons) (from UniProt Q91VC3 1-411)

binding [2]: binds | binding [3]: binds
Molecule: Mago Nashi (HEK293T) (human (endogenous in HEK293T))

binding [2]: binds | binding [3]: binds
Molecule: CYFIP1 (HEK293T) (from UniProt Q7L576 1-1253)

binding [4]: binds
B4: Tsr1 (protein, UniProt Q5SWD9 1-803)
chain: MAAHRSGPLKQQNKAHKGGRHHGGGSAQRDSKGRVGPKILCKKLKRQLSRIDQRHRASQLRKQKRESVLAEKRQLGSKDGPPHQVLVVPLHSRISLPEAFKLLQNEDLGTVYLSERGSTQSFMLLCPSLKHRWFFTYARPGDLHTLLDMAKVADTILFLLDPLEGWDSTGDYCLSCLFAQGLPTYTLAVQGLSGFPPKKQIDARKKLSKMVEKRFPEDKLLLLDTQQESGMLLRQLANQKQRHLAFRDRRAYLFAHVADFVPSEESDLVGTLKISGYVRGRTLNVNSLLHIVGHGDFQMNQIDAPVDPFPLNPRVIKSQKKPNMAMEVCVTDAAPDMEEDLKVLMKADPDHQESLQTEAIPDPMEGEQTWPTEEELDEADDLLKQRSRVVKKVPKGTSSYQAEWILDEGDESDGEGGEYDDIQHEGFMEEESQDGSGEEEEEECETMTLGESVRDDLYDEKVDAEDEERMLEKYKQERLEEMFPDEMDTPRDVAARIRFQKYRGLKSFRTSPWDPKENLPRDYARIFQFQNFVNTRKRIFKEIEEKEAEGAEVGWYVTLHVSDVPVSVVEYFRQGAPLIAFSLLPYEQKMSVLNMVVSRNPGNTEPVKAKEELIFHCGFRRFRASPLFSQHTAADKHKFQRFLTADAAFVVTVFAPITFPPASVLLFKQRRNGMHSLIATGHLFSVDPDRMVIKRVVLSGHPFKIFTKMAVVRYMFFNREDVMWFKPVELRTKWGRRGHIKEPLGTHGHMKCSFDGKLKSQDTVLMNLYKRVFPKWTYDPYVPEPVPWVKSDISSTVSEVDME

binding [4]: binds
B6: Mms19 (protein, UniProt Q9D071 1-1031)
chain: MAAATGLEEAVAPMGALCGLVQDFVMGQQEGPADQVAADVKSGGYTVLQVVEALGSSLENAEPRTRARGAQLLSQVLLQCHSLLSEKEVVHLILFYENRLKDHHLVVPSVLQGLRALSMSVALPPGLAVSVLKAIFQEVHVQSLLQVDRHTVFSIITNFMRSREEELKGLGADFTFGFIQVMDGEKDPRNLLLAFRIVHDLISKDYSLGPFVEELFEVTSCYFPIDFTPPPNDPYGIQREDLILSLRAVLASTPRFAEFLLPLLIEKVDSEILSAKLDSLQTLNACCAVYGQKELKDFLPSLWASIRREVFQTASERVEAEGLAALHSLTACLSCSVLRADAEDLLGSFLSNILQDCRHHLCEPDMKLVWPSAKLLQAAAGASARACEHLTSNVLPLLLEQFHKHSQSNQRRTILEMILGFLKLQQKWSYEDRDERPLSSFKDQLCSLVFMALTDPSTQLQLVGIRTLTVLGAQPGLLSAEDLELAVGHLYRLTFLEEDSQSCRVAALEASGTLATLYPGAFSRHLLPKLAEELHKGESDVARADGPTKCSRHFRCLQALSAVSTHPSIVKETLPLLLQHLCQANKGNMVTESSEVVAVCQSLQQVAEKCQQDPESYWYFHKTAVPCLFALAVQASMPEKESSVLRKVLLEDEVLAALASVIGTATTHLSPELAAQSVTCIVPLFLDGNTSFLPENSFPDQFQPFQDGSSGQRRLVALLTAFVCSLPRNVEIPQLNRLMRELLKQSCGHSCPFSSTAATKCFAGLLNKQPPGQQLEEFLQLAVGTVEAGLASESSRDQAFTLLLWVTKALVLRYHPLSACLTTRLMGLLSDPELGCAAADGFSLLMSDCTDVLTRAGHADVRIMFRQRFFTDNVPALVQGFHAAPQDVKPNYLKGLSHVLNRLPKPVLLPELPTLLSLLLEALSCPDSVVQLSTLSCLQPLLLEAPQIMSLHVDTLVTKFLNLSSSYSMAVRIAALQCMHALTRLPTSVLLPYKSQVIRALAKPLDDKKRLVRKEAVSARGEWFLLGSPGS

binding [4]: binds
B7: Nek9 (protein, UniProt Q8K1R7 1-984)
chain: MSVLGEYERHCDSINSDFGSESGGGGDSGPGPSAVPGPRAGGGAAEQEELHYIPIRVLGRGAFGEATLYRRTEDDSLVVWKEVDLTRLSEKERRDALNEIVILALLQHDNIIAYYNHFMDNTTLLIELEYCNGGNLYDKILRQKDKLFEEEMVVWYLFQIVSAVSCIHKAGILHRDIKTLNIFLTKANLIKLGDYGLAKKLNSEYSMAETLVGTPYYMSPELCQGVKYNFKSDIWAVGCVIFELLTLKRTFDATNPLNLCVKIVQGIRAMEVDSSQYSLELIQLVHACLDQDPEQRPAADALLDLPLLRTRRREMEEKVTLLNAPTKRPRSSTVTEAPIAVVTSRTSEVYVWGGGKSTPQKLDVIKSGCSARQVCAGNTHFAVVTVEKELYTWVNMQGGTKLHGQLGHGDKASYRQPKHVEKLQGKAIHQVSCGDDFTVCVTDEGQLYAFGSDYYGCMGVDKVSGPEVLEPMQLNFFLSNPVEQVSCGDNHVVVLTRNKEVYSWGCGEYGRLGLDSEEDYYTPQRVDVPKALIIVAVQCGCDGTFLLTQSGKVLACGLNEFNKLGLNQCMSGIINHEAYHEVPYTTSFTLAKQLSFYKIRTIAPGKTHTAAIDERGRLLTFGCNKCGQLGVGNYKKRLGINLLGGPLGGKQVIRVSCGDEFTIAATDDNHIFAWGNGGNGRLAMTPTERPHGSDICTSWPRPIFGSLHHVPDLSCRGWHTILIVEKVLNSKTIRSNSSGLSIGTVVQSSSPGGGIGGGGGGGGGGGGEEEDSQQESETPDPSGGFRGTMEADRGMEGLISPTEAVGNSCGASSSCPGWLRKELENAEFIPMPDSPAPLSAAFSQSEKDTLPYEELQGLKVASEVPPEPQRAAGAWPPRLDPAVPCVGKALTSAACACSALQVEVDRLQALVLKCLEEQQKLQQENLQMFTQLQKLNKKLEGGQQVGMHSRGTQTAKEEMEMDPKPDLDSESWCLLGTDSCRPSL

Results are given in words; binding and its absence hold for the method and conditions named. Binding seen in cells or lysates may run through a third protein. A yes stands for co-enrichment or nearness to the bait. Other partners may have been found. For some of these results: Where a sequence is shown, tags or fusion partners need not be part of it. Each block holds one molecule with its values, some of them ahead of it.
